Patent US10933091B1, “Composition and method for the treatment of type I diabetes” (Vector Vitale IP LLC, priority 2019, dated 2021)

Tests used:
[1] = Intraperitoneal administration to intact rats: accumulation of metals in liver and kidney tissues; settings: day 1 and day 7 after discontinuation, in words
[2] = Levels of divalent metal ions in muscles, kidneys and liver, diet-induced obesity study; settings: DIO rats (high-fat diet)

With `CC(=O)[O-].CC(=O)[O-].[Zn+2]` [Zn acetate, Zinc acetate, reference compound] the “manganese and copper in kidney and liver tissues” value [1] was “within the same concentrations as in the control group”.

For `N[C@@H](CC(=O)[O-])C(=O)[O-].[Zn+2]` [^64Zne, zinc aspartate], the “manganese and copper in kidney and liver tissues” value [1] was “within the same concentrations as in the control group”, the Copper level ([2]; kidneys) was 4.94 ± 0.82 μg/ tissue and the Manganese level ([2]; kidneys) was 0.64 ± 0.03 μg/ tissue. The Copper level ([2]; liver) was 3.93 ± 0.09 μg/ tissue, the Manganese level ([2]; liver) was 1.94 ± 0.12 μg/ tissue and the Copper level ([2]; muscles) was 0.72 ± 0.15 μg/ tissue.
